Laboratory results: PubChem BioAssay AID651660 (Broad Institute, 2012)
Where “and” joins values, the source holds several entries; their conditions need not be identical. Identical values can stand only once. Hit rate of the full screen: of about 1,900 compounds, about 15 (0.8%) were called active.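 Rule for the calls: active = every replicate shows at least 50% inhibition; inconclusive = mean inhibition at least 50% but some replicate below; inactive = the rest.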 The list shows a part of the results.

Chains of the proteins cited; added tags and fusions are not shown. Lines headed by an entry give the natural chain unless they say otherwise; changes in a name come on top.
UniProt P43351: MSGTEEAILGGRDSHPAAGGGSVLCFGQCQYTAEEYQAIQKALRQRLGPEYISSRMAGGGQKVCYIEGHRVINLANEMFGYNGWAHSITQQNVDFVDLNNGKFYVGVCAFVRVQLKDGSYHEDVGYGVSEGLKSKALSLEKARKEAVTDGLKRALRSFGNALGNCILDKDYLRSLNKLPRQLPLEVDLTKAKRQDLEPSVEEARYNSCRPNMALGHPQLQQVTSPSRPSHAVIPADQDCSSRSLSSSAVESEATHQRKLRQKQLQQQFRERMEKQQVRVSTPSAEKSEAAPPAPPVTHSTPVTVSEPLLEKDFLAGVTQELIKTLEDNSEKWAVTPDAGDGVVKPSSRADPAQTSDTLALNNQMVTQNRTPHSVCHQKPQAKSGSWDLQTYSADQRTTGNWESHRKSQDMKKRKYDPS

target: DNA repair protein RAD52 homolog (Homo sapiens) (UniProt P43351); experiment: inhibition of RAD52-mediated strand annealing – biochemical, FRET, single point, primary screen (AID 651660); conditions: Recombinant RAD52 ssDNA annealing, FRET fluorescence, 30 min; at 18.7 µM; active compounds read high;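 note: 0% = median of neutral control wells and 100% = median of positive control wells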

inhibition, inactive:
O=C(O)/C=C/c1ccc(O)c(O)c1 1.55%
O=C(Nc1ccc(Cl)cn1)Nc1ccccc1Cl -4.1%
C[N+](C)(C)CCCCCCCCCC[N+](C)(C)C -12.5%
O=C(/C=C/c1ccco1)NCc1ccc2c(c1)OCO2 -25.8%
CC1=CC(C)(C)N2C(=O)C3(NCCc4c3[nH]c3ccccc43)c3cc(C)cc1c32 (stereo not drawn) 15%
COc1ccc(CC(=O)N2CC3(C)CC2CC(C)(C)C3)cc1OC (stereo not drawn) 4.24%
C=CCN1C(=O)c2oc3ccccc3c(=O)c2C1c1ccc(O)c(OC)c1 (stereo not drawn) -8.96%
COc1cccc2c(=O)c3ccccc3oc12 -7.5%
CC1(C)C(=O)OC(c2cccs2)C2(CCCCC2)C1=O (stereo not drawn) -4.2%
CN(C)CCN(Cc1ccccc1)c1ccccn1 -8.55%
Cn1c(=O)oc2cc(S(=O)(=O)N3CCc4ccccc4C3)ccc21 1.58%
CC(NC(=O)OCc1ccccc1)C(=O)N1CC(O)CC1C(=O)O (stereo not drawn) -5.77%
CCC[C@@H]1C[C@@H](C(=O)N[C@H]([C@@H](C)O)[C@H]2O[C@H](SC)[C@H](O)[C@@H](O)C2O)N(C)C1 (stereo partly drawn) 1.34%
COc1cccc(OC)c1C(=O)Nc1nc2ccc([N+](=O)[O-])cc2s1 -5.43%
CCCN(CCC)S(=O)(=O)c1ccc(C(=O)O)cc1 11.6%
CSCCC1NC2(C(=O)Nc3ccc(Cl)cc32)[C@@H]2C(=O)N(C3CCCC3)C(=O)[C@H]12 (stereo partly drawn) 0.369%
CN1C2CCC1CC(OC(c1ccccc1)c1ccccc1)C2 (stereo not drawn) 2.64%
COc1ccc(C2NC(C(=O)O)Cc3c2[nH]c2ccccc32)cc1CN1CCN(c2ccc(F)cc2)CC1 (stereo not drawn) 2.77%
CN1CCc2cccc3c2[C@@H]1Cc1ccc(O)c(O)c1-3 28.9%
CN(C)CCOC(c1ccccc1)c1ccccc1 -4.29%
O=C(NCc1ccco1)/C(=C\C=C\c1ccccc1)NC(=O)c1ccccc1Br -2.54%
CC(=O)N1CCN(c2ccc(OC[C@H]3CO[C@](Cn4ccnc4)(c4ccc(Cl)cc4Cl)O3)cc2)CC1 19.9%
CO[C@@H]1O[C@@H]2COC(c3ccccc3)O[C@@H]2[C@@H](OC)[C@@H]1O (stereo partly drawn) 4.91%
COc1ccc(S(N)(=O)=O)cc1C(N)=O 0.0195%
CC(=O)[C@H]1CC[C@H]2[C@@H]3CCC4=CC(=O)CC[C@]4(C)[C@H]3CC[C@]12C 0.0875%
COC(=O)C1=CN(Cc2cccs2)C=C(C(=O)OC)C1c1cccc(Cl)c1 11.7%
CC(C)NC[C@@H](O)c1ccc(O)c(O)c1 -21.4%
Cc1ccc2[nH]c3c(=O)n(CCc4cnc[nH]4)cnc3c2c1 6.95%
CCCCCC(=O)O[C@]1(C(C)=O)CC[C@H]2[C@@H]3CCC4=CC(=O)CC[C@]4(C)[C@H]3CC[C@@]21C 5.7%
CNCCCC12CCC(c3ccccc31)c1ccccc12 13.6% and 16.7%
Oc1ccc(Oc2ncc(Cl)cc2Cl)cc1 5.9%
CCOC(=O)N1CCc2[nH]c3ccc(C)cc3c2C1 -15.2%
Cc1nc(N[C@@H](Cc2c[nH]c3ccccc23)C(=O)O)c2oc3ccccc3c2n1 -19.8%
O=C(Oc1ccccc1)Oc1ccc2c(c1)oc(=O)c1ccccc12 2.77%
CC(=O)N(CCC1(c2ccc(C)cc2)CCOC(C(C)C)C1)Cc1ccco1 (stereo not drawn) -1.21%
O=C(O)CCn1cnc2ccccc2c1=O 0.434%
O=C(CCCN1C(=O)/C(=C\c2cccs2)SC1=S)Nc1ccccn1 -23.2%
CC(=O)CCCCn1c(=O)c2c(ncn2C)n(C)c1=O -3.51%
O=C1CCCN1CCCn1cnc2c([nH]c3ccc(F)cc32)c1=O -0.473%
Cc1cccc2c(=O)n3c(nc12)CCCCC3 -4.57%
O=C(NCCN1CCOCC1)c1ccc(Cl)cc1 -3.7%
Cc1cc(OC(=O)CNC(=O)OC(C)(C)C)c2c(C)cc(=O)oc2c1 -1.07%
COc1ccc(C(=O)CCN2CCc3cc(OC)c(OC)cc3C2)cc1 5.84%
COc1cc(CC(=O)NCCc2ccc(S(N)(=O)=O)cc2)cc(OC)c1OC -2.62%
Cc1cccc(OCC(=O)Nc2ccc(C(=O)NCC(C)C)cc2)c1 -8.4%
C[C@H]([C@@H](N)C(=O)N[C@@H](C(=O)O)[C@@H]1O[C@H](n2ccc(=O)[nH]c2=O)[C@@H](O)[C@H]1O)[C@@H](O)c1ccc(O)cn1 -60.2%
Cc1c(OCC(=O)NC(Cc2c[nH]c3ccc(O)cc23)C(=O)O)ccc2c3c(c(=O)oc12)CCC3 (stereo not drawn) -8.05%
Cc1ccnc(NS(=O)(=O)c2ccc(N)cc2)n1 -3.32%
NC(=O)OCC(COC(N)=O)c1ccccc1 2.1%
Cc1ccc(C(=O)COC(=O)c2cccc(N3C(=O)c4c(C)nc5ccccc5c4C3=O)c2)cc1C -4.82%
CC1(C#CC[N+]2(C)CCCCC2)CCC2C(O1)c1ccccc1OC2(C)C (stereo not drawn) -7.61%
CC(=O)N1CC2(C)CN(C(C)=O)CC(C)(C1)C2 -4.54%
O=c1ccn([C@@H]2O[C@H](CO)[C@@H](O)[C@H]2O)c(=O)[nH]1 -0.182%
Cc1cc(O)c(C(C)C)cc1C1(c2cc(C(C)C)c(O)cc2C)OC(=O)c2ccccc21 -6.19%
CCCCCC(O)c1cccc(OCc2ccc3ccccc3n2)c1 (stereo not drawn) 8.49%
COc1ccc(C2CC(c3ccc([N+](=O)[O-])cc3)=NN2C(=O)c2ccccc2)cc1OC (stereo not drawn) -4.95%
CCCCNc1cc(C(=O)O)cc(S(N)(=O)=O)c1Oc1ccccc1 -6.48%
CC1(C)CC(CC(=O)O)(c2ccc(Cl)cc2)CCO1 (stereo not drawn) -20%
